The M2OR odorant receptor database
Only a part is listed here, and it is no random draw. Calls are pooled over several reports, among them a noisy single-well screen. The list shows a part of the results.

Tests used:
Conditions in all cases: stereoisomer not certain
OR6S1 = system: T1, OR6S1
T1 sequence (whole entry): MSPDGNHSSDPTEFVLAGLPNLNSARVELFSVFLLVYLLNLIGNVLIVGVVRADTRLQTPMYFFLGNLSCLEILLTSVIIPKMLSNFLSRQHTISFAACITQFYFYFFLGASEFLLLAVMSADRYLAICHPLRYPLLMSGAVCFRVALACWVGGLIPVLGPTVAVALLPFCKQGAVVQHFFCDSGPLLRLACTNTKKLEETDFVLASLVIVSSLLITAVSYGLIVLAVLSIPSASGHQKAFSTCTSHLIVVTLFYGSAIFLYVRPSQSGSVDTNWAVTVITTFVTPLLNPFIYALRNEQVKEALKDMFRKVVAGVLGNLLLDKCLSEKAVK
Procedure, shortened: (§1)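 Each receptor–molecule pair is labelled responsive or non-responsive (inactive) according to whether the original authors judged the measured signal statistically different from baseline. The data were taken from the main text and supplementary material of published papers and checked for typos and inconsistencies. Assay methods differed by source, with transient luciferase assays in mammalian cell lines being common.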

OR6T1 = system: T2, OR6T1
T2 sequence (whole entry): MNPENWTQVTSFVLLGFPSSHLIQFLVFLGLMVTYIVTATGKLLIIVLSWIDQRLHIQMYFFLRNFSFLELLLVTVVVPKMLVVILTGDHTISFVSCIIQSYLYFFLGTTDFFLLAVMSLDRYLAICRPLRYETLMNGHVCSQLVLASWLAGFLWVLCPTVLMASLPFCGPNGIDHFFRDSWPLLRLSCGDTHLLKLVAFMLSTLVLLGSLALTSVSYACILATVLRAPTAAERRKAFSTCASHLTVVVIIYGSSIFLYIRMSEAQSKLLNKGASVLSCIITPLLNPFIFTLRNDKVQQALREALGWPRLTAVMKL
Procedure, shortened: as §1

OR6V1 (Homo sapiens) = target: T3, OR6V1 (Homo sapiens) (UniProt Q8N148)
T3 sequence (whole entry): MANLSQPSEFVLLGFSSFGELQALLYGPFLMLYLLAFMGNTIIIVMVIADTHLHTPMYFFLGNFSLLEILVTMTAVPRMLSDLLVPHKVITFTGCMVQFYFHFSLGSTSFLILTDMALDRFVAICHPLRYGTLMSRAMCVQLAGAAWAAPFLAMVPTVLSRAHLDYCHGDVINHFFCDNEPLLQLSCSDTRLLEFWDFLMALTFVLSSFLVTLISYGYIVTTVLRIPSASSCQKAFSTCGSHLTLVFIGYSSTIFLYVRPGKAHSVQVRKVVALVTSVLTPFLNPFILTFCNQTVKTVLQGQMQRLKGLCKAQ
Procedure, shortened: as §1

OR6X1 (Homo sapiens) = target: T4, OR6X1 (Homo sapiens) (UniProt Q8NH79)
T4 sequence (whole entry): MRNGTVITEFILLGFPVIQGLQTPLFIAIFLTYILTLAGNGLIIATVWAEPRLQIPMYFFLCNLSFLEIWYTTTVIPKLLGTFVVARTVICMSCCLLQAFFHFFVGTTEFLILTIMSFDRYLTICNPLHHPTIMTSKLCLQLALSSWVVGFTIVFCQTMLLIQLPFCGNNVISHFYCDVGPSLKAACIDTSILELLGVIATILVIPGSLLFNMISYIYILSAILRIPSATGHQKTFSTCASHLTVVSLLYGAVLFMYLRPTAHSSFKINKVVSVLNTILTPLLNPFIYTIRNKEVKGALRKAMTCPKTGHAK
Procedure, shortened: as §1

OR6Y1 = system: T5, OR6Y1
T5 sequence (whole entry): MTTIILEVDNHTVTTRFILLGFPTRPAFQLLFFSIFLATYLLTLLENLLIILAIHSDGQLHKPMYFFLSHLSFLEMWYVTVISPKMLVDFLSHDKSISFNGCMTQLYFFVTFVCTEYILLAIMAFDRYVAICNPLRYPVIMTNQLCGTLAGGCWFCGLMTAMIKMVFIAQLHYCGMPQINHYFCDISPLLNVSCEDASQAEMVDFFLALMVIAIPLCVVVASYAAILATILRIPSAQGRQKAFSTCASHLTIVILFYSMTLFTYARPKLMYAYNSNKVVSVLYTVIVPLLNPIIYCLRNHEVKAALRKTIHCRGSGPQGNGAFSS
Procedure, shortened: as §1

OR7A10 (Homo sapiens) = target: T6, OR7A10 (Homo sapiens) (UniProt O76100)
T6 sequence (whole entry): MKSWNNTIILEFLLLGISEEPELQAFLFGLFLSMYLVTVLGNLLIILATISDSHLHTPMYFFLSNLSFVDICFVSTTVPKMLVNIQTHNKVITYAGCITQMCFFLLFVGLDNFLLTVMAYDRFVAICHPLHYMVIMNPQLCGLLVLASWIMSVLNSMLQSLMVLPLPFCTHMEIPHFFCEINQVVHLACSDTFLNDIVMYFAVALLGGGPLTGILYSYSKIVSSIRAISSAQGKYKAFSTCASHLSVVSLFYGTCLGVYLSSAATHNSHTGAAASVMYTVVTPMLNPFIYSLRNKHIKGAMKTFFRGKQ
Procedure, shortened: as §1

OR7A17 (Homo sapiens) = target: T7, OR7A17 (Homo sapiens) (UniProt O14581)
T7 sequence (whole entry): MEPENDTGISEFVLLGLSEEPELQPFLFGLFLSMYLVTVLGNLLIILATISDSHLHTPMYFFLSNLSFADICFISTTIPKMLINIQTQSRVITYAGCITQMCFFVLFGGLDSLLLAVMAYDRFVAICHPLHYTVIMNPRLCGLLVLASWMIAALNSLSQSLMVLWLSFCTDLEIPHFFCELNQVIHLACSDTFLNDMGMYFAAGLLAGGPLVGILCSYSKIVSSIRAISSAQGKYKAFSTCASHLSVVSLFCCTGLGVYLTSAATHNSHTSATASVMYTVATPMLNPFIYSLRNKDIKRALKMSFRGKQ
Procedure, shortened: as §1

OR7A5 (Homo sapiens) = target: T8, OR7A5 (Homo sapiens) (UniProt Q15622)
T8 sequence (whole entry): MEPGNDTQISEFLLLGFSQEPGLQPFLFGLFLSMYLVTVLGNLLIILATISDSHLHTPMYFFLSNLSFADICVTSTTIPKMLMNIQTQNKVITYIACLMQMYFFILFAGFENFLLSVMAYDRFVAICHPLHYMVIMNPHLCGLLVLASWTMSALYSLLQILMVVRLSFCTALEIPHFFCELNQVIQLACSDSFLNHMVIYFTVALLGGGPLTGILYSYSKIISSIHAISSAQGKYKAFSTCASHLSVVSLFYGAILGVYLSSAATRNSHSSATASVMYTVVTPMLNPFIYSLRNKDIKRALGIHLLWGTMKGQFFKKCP
Procedure, shortened: as §1

OR7C1 = system: T9, OR7C1
T9 sequence (whole entry): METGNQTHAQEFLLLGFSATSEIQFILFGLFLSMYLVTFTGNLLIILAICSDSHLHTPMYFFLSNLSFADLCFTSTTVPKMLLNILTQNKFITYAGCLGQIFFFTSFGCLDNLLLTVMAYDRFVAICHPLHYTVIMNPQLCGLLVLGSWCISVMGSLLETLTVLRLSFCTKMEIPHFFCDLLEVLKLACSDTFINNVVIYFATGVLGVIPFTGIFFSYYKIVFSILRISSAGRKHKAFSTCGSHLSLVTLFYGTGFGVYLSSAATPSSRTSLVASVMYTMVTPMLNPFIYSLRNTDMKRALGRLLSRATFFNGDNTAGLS
Procedure, shortened: as §1

OR7C2 = system: T10, OR7C2
T10 sequence (whole entry): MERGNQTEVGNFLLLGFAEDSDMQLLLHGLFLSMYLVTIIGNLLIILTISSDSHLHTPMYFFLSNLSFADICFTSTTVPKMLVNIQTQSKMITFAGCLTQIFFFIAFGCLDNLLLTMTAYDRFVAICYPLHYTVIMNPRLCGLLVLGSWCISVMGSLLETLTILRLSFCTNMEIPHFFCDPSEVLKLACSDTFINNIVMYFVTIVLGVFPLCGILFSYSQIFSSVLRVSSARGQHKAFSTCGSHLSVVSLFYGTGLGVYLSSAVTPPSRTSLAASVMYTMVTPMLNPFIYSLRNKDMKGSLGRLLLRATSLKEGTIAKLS
Procedure, shortened: as §1
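Also: active if original authors judged signal statistically different from baseline.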

SMILES | odorant receptor agonist call (OR6S1) | odorant receptor agonist call (OR6T1) | odorant receptor agonist call (OR6V1 (Homo sapiens)) | odorant receptor agonist call (OR6X1 (Homo sapiens)) | odorant receptor agonist call (OR6Y1) | odorant receptor agonist call (OR7A10 (Homo sapiens)) | odorant receptor agonist call (OR7A17 (Homo sapiens)) | odorant receptor agonist call (OR7A5 (Homo sapiens)) | odorant receptor agonist call (OR7C1) | odorant receptor agonist call (OR7C2)
CS | inactive | inactive | inactive | inactive | inactive | inactive | inactive | inactive | active | inactive
CCCCOC(C)=O | inactive | inactive | inactive | inactive | inactive | inactive | inactive | inactive | inactive | inactive
CCC(C)=O | inactive | inactive | inactive | inactive | inactive | inactive | inactive | inactive | inactive | inactive
